Primary screen of a compound library

By UniProt entry, the sequences of proteins in these tests, tags left out.
UniProt E9BF75, entry or part of it: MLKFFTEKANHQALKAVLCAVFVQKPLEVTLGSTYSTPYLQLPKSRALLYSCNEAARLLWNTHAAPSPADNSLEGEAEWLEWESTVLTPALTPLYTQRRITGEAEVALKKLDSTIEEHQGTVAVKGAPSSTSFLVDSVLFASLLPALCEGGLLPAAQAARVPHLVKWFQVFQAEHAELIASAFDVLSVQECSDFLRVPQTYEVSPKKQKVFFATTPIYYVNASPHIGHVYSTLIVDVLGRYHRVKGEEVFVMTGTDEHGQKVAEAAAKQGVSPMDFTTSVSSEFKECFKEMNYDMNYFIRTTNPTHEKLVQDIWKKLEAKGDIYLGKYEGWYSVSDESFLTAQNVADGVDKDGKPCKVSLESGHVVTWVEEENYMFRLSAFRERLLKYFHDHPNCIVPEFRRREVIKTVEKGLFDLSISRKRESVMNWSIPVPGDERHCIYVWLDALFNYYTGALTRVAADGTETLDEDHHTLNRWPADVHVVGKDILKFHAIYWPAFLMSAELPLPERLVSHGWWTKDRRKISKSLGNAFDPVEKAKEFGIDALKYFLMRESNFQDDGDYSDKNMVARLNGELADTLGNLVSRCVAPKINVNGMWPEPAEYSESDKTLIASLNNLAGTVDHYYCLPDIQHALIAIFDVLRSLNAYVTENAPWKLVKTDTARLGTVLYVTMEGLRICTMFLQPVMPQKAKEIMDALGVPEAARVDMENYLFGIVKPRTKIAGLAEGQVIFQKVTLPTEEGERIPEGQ

From ChEMBL document CHEMBL3988442, “University of Dundee, Small-Polar-MMV Screening Library” (2021).

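Primary screen of methionyl-tRNA synthetase; the read-out is not stated. Target: Methionyl-tRNA synthetase (putative), Leishmania donovani (UniProt E9BF75). The test concentration is not given. The values are filed as inhibition. Size under these conditions: about 68,000 compounds, about 24 of them at 50% or above in at least one test.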

All values are in %.
How 0% and 100% were set is not recorded. Most values in the screen are low, and negative values occur.
This is an unselected part of the compounds tested.

Result for CC(C)(C)OC(=O)N[C@H]1CCN(c2cncc(Br)c2)C1 was 11.15%. With O=C(CCn1ccc2ccc(F)cc21)/N=c1\[nH]nc(C2CCCO2)s1 (stereo not drawn) the screen gave 13.87%. With CC(C)N(C)[C@@H]1CCN(Cc2nccs2)[C@H]1Cc1ccncc1 the screen gave 14.49%. Cc1ccc(-n2ccnc2)c(C(=O)NCCCN(C)C)c1 gave 20.63%. For O=C(c1cnccn1)N1CCCC2(CCN(Cc3cccnc3)C2)C1 (stereo not drawn) the result was 12.33%. With CCN1CC2(CC1=O)CN(C(C)=O)CCN(C(=O)NC(C)C)C2 (stereo not drawn) the screen gave 12.09%. For CC(=O)N1CCCC(Cc2cnc(-c3c(C)nn(C)c3C)cn2)C1 (stereo not drawn) the result was 24.05%.

With Cc1nc(CN2CCOC3(CCCC3)C2)no1 the screen gave 17.13%. Result for O=C(c1cc[nH]n1)N1CCC(Nc2cccnn2)CC1 was 9.722%. COCCN1CCN(Cc2cccc(OCC(N)=O)c2)CC1C (stereo not drawn) read 8.392%. COCC1CN(c2ncc(F)cn2)Cc2cnn(C)c21 (stereo not drawn) read 15.58%. With CCNc1ccnc(NC2CCN(C(=O)c3ccc(C)cc3)CC2)n1 the screen gave 14.34%. For O=C(NC1(C(=O)NC2CCCC2)CCCC1)c1ccc2[nH]ncc2c1 the result was 11.65%. O=C(NCCNS(=O)(=O)c1cc(F)cc(F)c1)c1ccoc1 gave 16.43%.

Result for NS(=O)(=O)CCNC(=O)c1ccc(OCc2ccccc2)nc1 was 9.341%. For CC(=O)c1cccc(NC(=O)N2CCCCC2CN2CCCC2=O)c1 (stereo not drawn) the result was 12.43%. With CCC(CC)(CCO)CNC(=O)c1ccon1 the screen gave 4.393%. Result for O=C(CCc1ccc2c(c1)OCO2)Nc1cccnc1-n1cncn1 was -13.04%. CCCC(C(=O)NCCc1nc(C)cs1)N(C)C (stereo not drawn) gave -2.653%. NC(=O)C1CCN(C(=O)c2cccc(CN3CCOCC3)c2)CC1 read 2.655%. Result for c1cc(C2CCN(Cc3nc(C4CC4)no3)CC2)[nH]n1 was 12.37%.

CCN(CC)C(C)CNC(=O)c1cccnc1Oc1cccnc1 (stereo not drawn) gave 15.72%. For CCN(Cc1cccc2c1OCO2)C(=O)NCCOC the result was 13.66%. CSCCC(=O)N1CCc2c(ncnc2N2CCOCC2)C1 read 16.85%. CC(C)[C@]1(O)CN(C(=O)C2(Cn3cccn3)CC2)C[C@H]1C read 18.41%. Result for CCNC(=O)NC1CN(Cc2ccncc2Cl)C[C@@H]1OC (stereo partly drawn) was 7.453%. With C1CCC(c2nn3c(C4CCCO4)nnc3s2)C1 (stereo not drawn) the screen gave 13.32%. Cc1oc(-c2ccoc2)nc1CN1CCCCC1CCn1cccn1 (stereo not drawn) read 13.38%.

With CC(C)NC(=O)C1CN(C(=O)N2CCCC2)CC12CCOCC2 (stereo not drawn) the screen gave 11.59%. For COc1ccccc1CN(C)C(=O)c1cc(CN2CCC(O)CC2)on1 the result was 11.33%. With COc1cccc2c1OCC(CNc1cc(N)nc(SC)n1)C2 (stereo not drawn) the screen gave 15.97%. Result for COc1ccc(NC(=O)c2cccc(CN3CCCC3C)c2)cc1OC (stereo not drawn) was 15.13%. Cc1ncc(CN2Cc3ccccc3O[C@]3(CC[C@H](CO)CC3)C2)cn1 read 16.1%. CN1CC(Oc2ccc(Cl)cc2)=NC(SCC(=O)c2ccccc2)=N1 gave 6.767%. Result for O=C(Nc1ccccc1OC1CCOC1)c1ccon1 (stereo not drawn) was 15.86%.

Result for Cc1ccccc1C1(C(=O)NCCN2CCC(C)CC2)CCOCC1 was 12.22%. CCOC(=O)NC(CNC(=O)c1cccnc1SC)CC(C)C (stereo not drawn) read 4.27%.

Once more, the final 4:

With CN1CC(Oc2ccc(Cl)cc2)=NC(SCC(=O)c2ccccc2)=N1 the screen gave 6.767%.
With O=C(Nc1ccccc1OC1CCOC1)c1ccon1 (stereo not drawn) the screen gave 15.86%.
With Cc1ccccc1C1(C(=O)NCCN2CCC(C)CC2)CCOCC1 the screen gave 12.22%.
With CCOC(=O)NC(CNC(=O)c1cccnc1SC)CC(C)C (stereo not drawn) the screen gave 4.27%.